Reference: publication PMC7346168
Numbering of substitutions follows the chain as printed. Results are given in words; binding and its absence hold for the method and conditions named. Binding seen in cells or lysates may run through a third protein. A yes stands for co-enrichment or nearness to the bait. Other partners may have been found.

By UniProt entry, the sequences of proteins in these tests, tags left out. Where a name states a change or a piece, a line headed by the entry shows the natural chain unless it says otherwise. Residues count along the entry.
UniProt P56757: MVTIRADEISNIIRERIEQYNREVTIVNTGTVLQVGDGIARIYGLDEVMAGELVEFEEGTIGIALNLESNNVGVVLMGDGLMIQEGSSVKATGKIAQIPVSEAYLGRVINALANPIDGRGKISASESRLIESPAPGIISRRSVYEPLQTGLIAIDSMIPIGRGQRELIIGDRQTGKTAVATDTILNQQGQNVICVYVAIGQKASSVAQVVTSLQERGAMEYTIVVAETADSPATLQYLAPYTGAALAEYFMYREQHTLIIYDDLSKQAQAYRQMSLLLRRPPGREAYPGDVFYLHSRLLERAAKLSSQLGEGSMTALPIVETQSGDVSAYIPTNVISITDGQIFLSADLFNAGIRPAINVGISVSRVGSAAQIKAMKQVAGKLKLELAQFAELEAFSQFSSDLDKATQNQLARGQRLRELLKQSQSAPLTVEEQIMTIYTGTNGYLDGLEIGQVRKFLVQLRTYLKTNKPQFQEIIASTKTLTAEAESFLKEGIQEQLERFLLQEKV
UniProt Q8W583, residues 50-190: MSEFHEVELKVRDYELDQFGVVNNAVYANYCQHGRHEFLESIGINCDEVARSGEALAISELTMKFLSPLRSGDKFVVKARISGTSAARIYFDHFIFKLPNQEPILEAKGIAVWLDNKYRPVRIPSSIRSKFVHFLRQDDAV
UniProt P17745, residues 68-476: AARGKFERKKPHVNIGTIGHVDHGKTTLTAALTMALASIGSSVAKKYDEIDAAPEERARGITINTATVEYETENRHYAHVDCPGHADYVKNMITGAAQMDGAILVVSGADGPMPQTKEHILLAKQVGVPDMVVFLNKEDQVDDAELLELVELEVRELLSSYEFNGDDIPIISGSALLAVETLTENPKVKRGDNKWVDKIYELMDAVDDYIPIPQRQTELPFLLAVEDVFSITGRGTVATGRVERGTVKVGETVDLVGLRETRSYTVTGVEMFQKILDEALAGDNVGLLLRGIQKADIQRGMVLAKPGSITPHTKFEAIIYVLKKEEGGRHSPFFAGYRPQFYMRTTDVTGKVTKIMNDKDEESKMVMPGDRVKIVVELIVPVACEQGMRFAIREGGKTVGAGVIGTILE
UniProt Q9SPK5: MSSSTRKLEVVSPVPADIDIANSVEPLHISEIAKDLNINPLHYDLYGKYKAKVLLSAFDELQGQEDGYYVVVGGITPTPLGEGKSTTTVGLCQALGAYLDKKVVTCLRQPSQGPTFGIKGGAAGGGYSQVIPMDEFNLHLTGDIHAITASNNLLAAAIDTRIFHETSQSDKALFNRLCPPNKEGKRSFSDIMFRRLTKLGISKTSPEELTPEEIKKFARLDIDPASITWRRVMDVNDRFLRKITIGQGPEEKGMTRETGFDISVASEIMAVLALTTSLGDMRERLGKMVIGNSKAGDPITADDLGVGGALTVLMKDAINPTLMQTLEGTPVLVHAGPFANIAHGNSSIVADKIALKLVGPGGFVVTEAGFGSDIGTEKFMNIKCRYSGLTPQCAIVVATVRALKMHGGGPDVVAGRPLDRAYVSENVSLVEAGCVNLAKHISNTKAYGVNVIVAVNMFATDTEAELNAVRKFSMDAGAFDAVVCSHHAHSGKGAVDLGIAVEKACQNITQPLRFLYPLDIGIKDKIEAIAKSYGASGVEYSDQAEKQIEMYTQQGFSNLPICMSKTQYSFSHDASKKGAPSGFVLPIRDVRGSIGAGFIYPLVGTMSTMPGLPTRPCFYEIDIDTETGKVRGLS
UniProt P38418: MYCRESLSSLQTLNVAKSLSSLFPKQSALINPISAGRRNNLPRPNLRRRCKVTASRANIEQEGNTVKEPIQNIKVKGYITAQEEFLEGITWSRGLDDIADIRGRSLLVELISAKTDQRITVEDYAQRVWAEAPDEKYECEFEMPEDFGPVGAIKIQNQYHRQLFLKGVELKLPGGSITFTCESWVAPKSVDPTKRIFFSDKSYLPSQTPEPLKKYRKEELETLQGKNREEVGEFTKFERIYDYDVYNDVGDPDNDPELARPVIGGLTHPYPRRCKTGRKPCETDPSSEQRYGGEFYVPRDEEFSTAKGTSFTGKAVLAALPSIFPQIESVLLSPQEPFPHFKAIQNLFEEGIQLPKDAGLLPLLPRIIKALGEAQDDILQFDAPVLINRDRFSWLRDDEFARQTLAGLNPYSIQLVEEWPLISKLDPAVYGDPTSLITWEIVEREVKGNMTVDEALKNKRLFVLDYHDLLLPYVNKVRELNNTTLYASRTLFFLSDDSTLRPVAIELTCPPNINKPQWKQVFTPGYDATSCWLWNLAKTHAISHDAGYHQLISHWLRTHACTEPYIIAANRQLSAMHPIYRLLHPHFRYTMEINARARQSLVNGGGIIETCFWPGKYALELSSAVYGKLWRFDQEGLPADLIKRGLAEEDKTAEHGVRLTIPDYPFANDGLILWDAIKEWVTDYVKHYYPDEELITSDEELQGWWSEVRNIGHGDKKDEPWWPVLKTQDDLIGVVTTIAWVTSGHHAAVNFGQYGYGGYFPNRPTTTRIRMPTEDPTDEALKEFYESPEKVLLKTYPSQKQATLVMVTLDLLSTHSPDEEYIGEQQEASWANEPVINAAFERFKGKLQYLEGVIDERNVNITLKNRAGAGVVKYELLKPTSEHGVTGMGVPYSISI
UniProt P23321, residues 86-332: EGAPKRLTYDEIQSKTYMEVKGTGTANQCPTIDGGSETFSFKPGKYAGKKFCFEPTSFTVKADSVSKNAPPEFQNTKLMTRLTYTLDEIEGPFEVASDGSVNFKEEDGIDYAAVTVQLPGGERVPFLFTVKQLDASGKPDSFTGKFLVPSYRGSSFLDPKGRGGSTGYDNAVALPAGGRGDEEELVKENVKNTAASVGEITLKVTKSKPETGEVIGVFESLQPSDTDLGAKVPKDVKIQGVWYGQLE
UniProt P34791, residues 80-260: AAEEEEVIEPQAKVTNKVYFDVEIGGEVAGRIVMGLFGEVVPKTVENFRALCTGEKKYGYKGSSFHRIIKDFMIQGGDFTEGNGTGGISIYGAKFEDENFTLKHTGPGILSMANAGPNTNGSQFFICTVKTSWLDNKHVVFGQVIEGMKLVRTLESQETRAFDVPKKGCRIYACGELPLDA
UniProt Q6ZY51, residues 55-1196: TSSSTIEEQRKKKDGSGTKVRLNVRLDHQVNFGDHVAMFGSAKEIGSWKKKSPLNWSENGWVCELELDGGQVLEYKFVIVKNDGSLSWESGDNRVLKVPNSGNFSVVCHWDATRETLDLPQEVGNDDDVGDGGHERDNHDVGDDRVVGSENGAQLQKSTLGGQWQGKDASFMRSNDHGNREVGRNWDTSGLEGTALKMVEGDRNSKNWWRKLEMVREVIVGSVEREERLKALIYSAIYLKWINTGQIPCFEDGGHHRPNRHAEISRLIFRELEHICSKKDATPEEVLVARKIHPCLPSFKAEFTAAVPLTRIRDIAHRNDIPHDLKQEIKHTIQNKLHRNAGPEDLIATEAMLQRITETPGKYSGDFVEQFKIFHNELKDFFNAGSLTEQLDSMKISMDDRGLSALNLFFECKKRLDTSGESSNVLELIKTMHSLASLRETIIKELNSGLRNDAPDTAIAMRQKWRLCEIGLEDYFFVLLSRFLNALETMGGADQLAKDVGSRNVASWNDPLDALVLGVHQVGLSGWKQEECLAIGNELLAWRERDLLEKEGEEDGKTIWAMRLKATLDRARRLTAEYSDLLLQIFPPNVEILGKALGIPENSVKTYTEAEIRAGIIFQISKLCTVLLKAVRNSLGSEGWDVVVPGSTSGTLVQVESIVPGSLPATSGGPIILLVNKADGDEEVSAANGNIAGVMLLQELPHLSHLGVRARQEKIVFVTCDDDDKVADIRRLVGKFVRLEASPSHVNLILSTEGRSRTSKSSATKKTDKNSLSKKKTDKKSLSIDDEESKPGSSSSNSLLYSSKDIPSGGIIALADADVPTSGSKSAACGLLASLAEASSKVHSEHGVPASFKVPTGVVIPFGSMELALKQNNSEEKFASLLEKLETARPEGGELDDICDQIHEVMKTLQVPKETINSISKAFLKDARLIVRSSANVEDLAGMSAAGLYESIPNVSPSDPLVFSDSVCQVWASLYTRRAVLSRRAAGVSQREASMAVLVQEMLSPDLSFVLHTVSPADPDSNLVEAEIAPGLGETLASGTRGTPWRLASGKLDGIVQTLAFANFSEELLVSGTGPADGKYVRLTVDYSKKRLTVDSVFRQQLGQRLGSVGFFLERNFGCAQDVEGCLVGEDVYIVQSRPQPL
UniProt Q9S7H1, residues 46-208: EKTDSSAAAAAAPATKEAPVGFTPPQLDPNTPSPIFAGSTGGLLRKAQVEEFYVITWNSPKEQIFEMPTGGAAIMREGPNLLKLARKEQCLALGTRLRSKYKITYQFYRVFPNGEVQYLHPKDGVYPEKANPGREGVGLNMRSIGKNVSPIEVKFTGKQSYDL
UniProt Q39129: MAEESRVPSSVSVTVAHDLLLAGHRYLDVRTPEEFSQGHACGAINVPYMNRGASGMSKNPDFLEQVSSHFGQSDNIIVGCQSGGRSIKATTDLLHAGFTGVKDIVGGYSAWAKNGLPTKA

What was measured:
[1] = molecular target: T1, 2-CysPRXA C54S (pseudo-reduced variant) (Arabidopsis) (UniProt Q96291); assay: affinity purification with mass spectrometry; reducing: his6-tagged 2-CysPRXA variant (3 mg) on Ni-NTA-agarose pretreated with 10 mM DTT; leaf extract (50 mg protein) made with 10 mM DTT; 50 mM HEPES pH 8.0, 1 h, 4 °C; stepwise elution with 1 M NaCl, 10 mM DTT, 250 mM imidazole; hits not found on the column without 2-CysPRX; only the target purified
T1 sequence: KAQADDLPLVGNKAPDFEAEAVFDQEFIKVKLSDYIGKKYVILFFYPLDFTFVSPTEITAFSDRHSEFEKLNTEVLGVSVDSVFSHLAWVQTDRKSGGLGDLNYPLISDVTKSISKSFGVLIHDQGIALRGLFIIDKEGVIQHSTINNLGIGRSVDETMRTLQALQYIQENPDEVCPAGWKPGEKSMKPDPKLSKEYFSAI

[2] = molecular target: T2, 2-CysPRXA C54D (pseudo-hyperoxidized variant) (Arabidopsis) (UniProt Q96291); assay: affinity purification with mass spectrometry; oxidizing: his6-tagged 2-CysPRXA variant (3 mg) on Ni-NTA-agarose pretreated with 1 mM H2O2; leaf extract (50 mg protein) made with 1 mM H2O2; 50 mM HEPES pH 8.0, 1 h, 4 °C; stepwise elution with 1 M NaCl, 10 mM DTT, 250 mM imidazole; hits not found on the column without 2-CysPRX; only the target purified
T2 sequence: T1 sequence with S54D

[3] = molecular target: T1, 2-CysPRXA C54S (pseudo-reduced variant) (Arabidopsis); assay: as above
[4] = molecular target: T2, 2-CysPRXA C54D (pseudo-hyperoxidized variant) (Arabidopsis); assay: affinity purification with mass spectrometry; reducing: his6-tagged 2-CysPRXA variant (3 mg) on Ni-NTA-agarose pretreated with 10 mM DTT; leaf extract (50 mg protein) made with 10 mM DTT; 50 mM HEPES pH 8.0, 1 h, 4 °C; stepwise elution with 1 M NaCl, 10 mM DTT, 250 mM imidazole; hits not found on the column without 2-CysPRX; only the target purified
[5] = molecular target: T3, 2-cysteine peroxiredoxin A, wild type (2-CysPRXA WT) (Arabidopsis) (UniProt Q96291); assay: as above
T3 sequence: T1 sequence with S54C

[6] = molecular target: T3, 2-cysteine peroxiredoxin A, wild type (2-CysPRXA WT) (Arabidopsis); assay: affinity purification with mass spectrometry; oxidizing: his6-tagged 2-CysPRXA variant (3 mg) on Ni-NTA-agarose pretreated with 1 mM H2O2; leaf extract (50 mg protein) made with 1 mM H2O2; 50 mM HEPES pH 8.0, 1 h, 4 °C; stepwise elution with 1 M NaCl, 10 mM DTT, 250 mM imidazole; hits not found on the column without 2-CysPRX; only the target purified
[7] = molecular target: T1, 2-CysPRXA C54S (pseudo-reduced variant) (Arabidopsis); assay: affinity purification with mass spectrometry; same pull down as a1 and a2, hits compiled from the results with all variants, redox and elution conditions; the redox condition is not told for the hit; only the target purified
[8] = molecular target: T3, 2-cysteine peroxiredoxin A, wild type (2-CysPRXA WT) (Arabidopsis); assay: as above

Question: How did the binding [1] turn out when AIR carboxylase like protein was run?
Answer: binds

Question: With AT5g64380/MSJ1_22 as the substance, how does the binding [2] read?
Answer: binds

Question: With “ATPase alpha subunit (from UniProt P56757 1-507)” as the substance, how does the binding [3] read?
Answer: binds

Question: With “Acyl-ACP thioesterase ATL3 (from UniProt Q8W583 50-190)” as the substance, how does the binding [4] read?
Answer: binds

Question: DAHP synthase 2 was tested. Which binding [5] did it give?
Answer: binds

Question: “Elongation factor 1 alpha (AT4G20360) (from UniProt P17745 68-476)” was tested. Which binding [6] did it give?
Answer: binds

Question: With “Formate--tetrahydrofolate ligase (from UniProt Q9SPK5 1-634)” as the substance, how does the binding [3] read?
Answer: binds

Question: Glutathione reductase was tested. Which binding [2] did it give?
Answer: binds

Question: “LIPOXYGENASE 2 (leaf protein) (from UniProt P38418)” was tested. Which binding [7] did it give?
Answer: binds

Question: And the binding [8]?
Answer: binds

Question: “Oxygen-evolving enhancer protein 1-1 (from UniProt P23321 86-332)” was tested. Which binding [3] did it give?
Answer: binds

Question: “Peptidyl-prolyl isomerase CYP20-3 (leaf protein) (from UniProt P34791 80-260)” was tested. Which binding [2] did it give?
Answer: binds

Question: How did the binding [4] turn out when “Phosphoglucan, water dikinase (from UniProt Q6ZY51 55-1196)” was run?
Answer: binds

Question: “Photosystem I reaction center subunit II-1 (from UniProt Q9S7H1 46-208)” was tested. Which binding [1] did it give?
Answer: binds

Question: How did the binding [1] turn out when Putative protein (At2G22230) was run?
Answer: binds

Question: For “Thiosulfate sulfurtransferase 16 (from UniProt Q39129 1-120)”, which binding [2] is on record?
Answer: binds

Question: For Transaldolase-like protein, which binding [5] is on record?
Answer: binds
